Measured values reported in article PMC11900227.
These are yes or no findings as the source states them, for the method shown. Binding seen in cells or lysates may run through a third protein. A result given as binding can be weak or reduced; the word gives no strength. Tags and fused reporters may be left off the sequences shown. Each block holds one binder with its values, some of them ahead of it.

Tests used:
[1] = biological target: IAA8-YFP^C (Arabidopsis thaliana); test: split reporter; BiFC in Arabidopsis mesophyll protoplasts; MPK3/6-YFP^N with TIR1- or IAAs-YFP^C, 25 °C for 12 h in the dark, confocal microscopy
[2] = biological target: IAA8-GFP (Arabidopsis thaliana); test: co-IP; Arabidopsis mesophyll protoplasts co-transfected; anti-GFP antibody immunoprecipitates IAA8-GFP, anti-Myc antibody detects MPK3-Myc or MPK6-Myc

binding [1]: binds
B1: MPK3-YFP^N (enzyme, UniProt Q39023 1-370)
chain: MNTGGGQYTDFPAVETHGGQFISYDIFGSLFEITSKYRPPIIPIGRGAYGIVCSVLDTETNELVAMKKIANAFDNHMDAKRTLREIKLLRHLDHENIIAIRDVVPPPLRRQFSDVYISTELMDTDLHQIIRSNQSLSEEHCQYFLYQLLRGLKYIHSANIIHRDLKPSNLLLNANCDLKICDFGLARPTSENDFMTEYVVTRWYRAPELLLNSSDYTAAIDVWSVGCIFMELMNRKPLFPGKDHVHQMRLLTELLGTPTESDLGFTHNEDAKRYIRQLPNFPRQPLAKLFSHVNPMAIDLVDRMLTFDPNRRITVEQALNHQYLAKLHDPNDEPICQKPFSFEFEQQPLDEEQIKEMIYQEAIALNPTYG

binding [2]: binds
B2: MPK3-Myc (enzyme, UniProt Q39023 1-370)
chain: B1 chain
